Laboratory results as given in PubChem BioAssay AID1688 (National Center for Advancing Translational Sciences (NCATS), 2009).
Among all 220,000 compounds or so, about 2,400 (1.1%) were called active. Inconclusive means that the source gave no clear call. Such entries were picked first, then a sample of the others. The call rests on the fitted dose curve; in most records, active means well fitted inhibition curve with a large enough effect; inconclusive means small, poorly fitted or top-dose-only effect, or effect the other way; inactive means no such curve, though single readings can be large or run the other way. Where the call is inconclusive, the potency comes from a doubtful curve fit.

Assay: qHTS Multiplex Assay to Identify Dual Action Probes in a Cell Model of Huntington: Aggregate Formation (GFP); further: nearly all actives have a fitted effect of over 60% in size
Settings: PC12 HttQ103-GFP aggregates, Acumen cytometry, 40 h; activity change, negative = inhibition: at 46.1 µM (top of the series) unless noted
Summary of the method: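 Steps: seed 1500 PC12 HTTQ103-GFP cells/well; add tebufenozide, 100 nM final; add compound titration; add ATPLite reagent; quantify GFP aggregates by laser scanning cytometry.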
On the % scale 0 is the no-effect control and ±100 the full control effect; potency means the concentration at half of the fitted maximal effect.

Compound	Potency	activity change, negative = inhibition
O=[N+]([O-])c1cc(C(F)(F)F)ccc1NCCc1c[nH]c2ccccc12	inconclusive: 12.6 µM [inhibitor, partial curve]	
COc1ccc(NS(=O)(=O)c2cc(C)ccc2NC(=O)c2cc(C)oc2C)cc1	inconclusive: 1.12 µM [inhibitor, partial curve]	
CN1CCN(S(=O)(=O)c2cc([N+](=O)[O-])ccc2N2CCCCCC2)CC1	inconclusive: 3.55 µM [activator, full curve, poor fit]	
O=c1c2cc(-c3ccccc3)sc2ncn1-n1cccc1		inactive: 22%
O=C(NC(=S)Nc1ccc(F)cc1)c1ccc2c(c1)OCCO2		inactive: -21.6%
COC(=O)c1[nH]c2ccccc2c1NC(=O)/C=C/c1ccc2c(c1)OCO2	inconclusive: 5.62 µM [inhibitor, single point]	
COc1ccc(N2CCN(c3ccc(C(N)=O)cc3[N+](=O)[O-])CC2)cc1		inactive: -14.9%
c1ccc(C(c2ccccc2)N2CCN(Cc3nnnn3C3CCCC3)CC2)cc1	inconclusive: 35.5 µM [inhibitor, single point]	
Cc1cc(-c2cn3ccccc3n2)c(C)n1-c1ccccc1	inconclusive: 31.6 µM [inhibitor, single point]	
Cc1ccc(N2CCN(C(=O)CN3C(=O)c4ccccc4C3=O)CC2)cc1	inconclusive: 6.31 µM [activator, single point]	
O=C1C=C(Nc2ccccc2)c2ccccc2C1=O	active: 4.47 µM	
Cc1ccc(C(=O)NCCSc2ccc(Cl)cc2)cc1[N+](=O)[O-]	inconclusive: 35.5 µM [inhibitor, single point]	
Cc1nc(N2CCC(C)CC2)c2c(C)c(C(=O)O)sc2n1	inconclusive: 12.6 µM [inhibitor, single point]	
CC(=O)NC1(c2cccc(F)c2)CCN(C(=O)Nc2ccc(C#N)cc2)CC1	inconclusive: 35.5 µM [activator, single point]	
CCOc1ccc(C(=O)NC2CCN(S(C)(=O)=O)CC2)cc1		inactive: -4.54%
Cc1sc2nc(-c3cccnc3)nc(Cl)c2c1-c1ccccc1		inactive: 6.21%
N#Cc1ccc(-c2csc(NNC(=O)c3ccccc3)n2)cc1	inconclusive: 7.08 µM [inhibitor, partial curve]	
CCOc1ccc(C(=O)NCC(=O)OCC(=O)N2CCCC2)cc1		inactive: 32.5%
CCc1nnc(NC(=O)[C@@H](NC(=O)c2cc(OC)cc(OC)c2)C(C)C)s1	inconclusive: 0.562 µM [activator, partial curve, poor fit]	
O=C(NC1CCCCC1)c1ccc(S(=O)(=O)c2ccccc2Cl)c([N+](=O)[O-])c1	inconclusive: 35.5 µM [inhibitor, single point]	
NC(=S)NN=C(Cc1ccccc1)Cc1ccccc1	inconclusive: 10 µM [inhibitor, partial curve]	
O=C(Nc1nc2ccccc2[nH]1)C12CC3CC(CC(C3)C1)C2	inconclusive: 35.5 µM [inhibitor, single point]	
CN(C)S(=O)(=O)c1ccc(Cl)c(NC(=O)CSc2nc3c(cc2C#N)C(=O)CCC3)c1	inconclusive: 17.8 µM [activator, single point]	

Among those listed so far, these have fluorine:
Compound	Potency	activity change, negative = inhibition
O=[N+]([O-])c1cc(C(F)(F)F)ccc1NCCc1c[nH]c2ccccc12	inconclusive: 12.6 µM [inhibitor, partial curve]	
O=C(NC(=S)Nc1ccc(F)cc1)c1ccc2c(c1)OCCO2		inactive: -21.6%
CC(=O)NC1(c2cccc(F)c2)CCN(C(=O)Nc2ccc(C#N)cc2)CC1	inconclusive: 35.5 µM [activator, single point]	

Going on with the list:

Compound	Potency	activity change, negative = inhibition
COc1ccc(NS(=O)(=O)c2ccc(N3CCOCC3)c(NC(=O)c3ccco3)c2)cc1	inconclusive: 12.6 µM [inhibitor, single point]	
COc1cc(/C=C(\C#N)c2nc3ccccc3[nH]2)ccc1Oc1ccc([N+](=O)[O-])cn1	inconclusive: 35.5 µM [inhibitor, single point]	
CC1CCN(S(=O)(=O)c2ccc(NC(=O)c3cccs3)cc2)CC1	inconclusive: 12.6 µM [inhibitor, single point]	
CCN(CC)c1ccc(/C=N/NC(=O)c2cc(C)nc3ccccc23)cc1		inactive: -3.77% [at 9.22 µM]
CCCCn1c(=NC(=O)c2ccc3c(c2)OCO3)c(C#N)cc2c(=O)n3cccc(C)c3nc21	inconclusive: 2.82 µM [activator, single point]	
CC(=O)c1cccc(NC(=O)C2CC(=O)N(Cc3ccccc3)C2)c1 (stereo not given)		inactive: -9.29%
CC(=O)OCCn1c2nc(=O)[nH]c(=O)c-2nc2cc(C)c(C)cc21	inconclusive: 3.55 µM [inhibitor, partial curve]	
Nc1ccc2nc(CCCO)[nH]c2c1		inactive: -20.8% [at 9.22 µM]
Cc1ccsc1C=Nc1ccc(O)cc1	inconclusive: 15.8 µM [activator, partial curve]	
C[n+]1cc(-c2ccccc2)n2c1CCCCC2	inconclusive: 7.08 µM [inhibitor, partial curve]	
Cc1ccnc(NC(=S)NC(=O)c2cncc(Br)c2)c1		inactive: 7.88%
C=CCNc1nc2c(c(=O)n(C)c(=O)n2C)n1CC	active: 12.6 µM	
CCc1ccc(OCCOCC(O)CNC(C)(C)C)cc1 (stereo not given)	inconclusive: 20 µM [activator, partial curve]	
O=C(Nc1nc2c(F)cc(F)cc2s1)c1ccccn1	inconclusive: 5.62 µM [inhibitor, single point]	
O=C(Cc1cc(C(=O)O)c2ccccc2n1)Nc1ccccc1	inconclusive: 14.1 µM [inhibitor, single point]	
COc1ccc(CCn2c(-c3cc([N+](=O)[O-])cc([N+](=O)[O-])c3)nc3nc4ccccc4nc32)cc1	inconclusive: 35.5 µM [activator, single point]	
COc1ccc(C(=O)c2cnc3ccccc3c2-c2ccccc2)cc1	inconclusive: 20 µM [inhibitor, single point]	
O=C(Cn1cc2c(n1)CCCC2)Nc1ccccc1Br		inactive: 12.9%
Cc1ccc(NC(=O)c2ccccc2O)cc1	inconclusive: 17.8 µM [inhibitor, single point]	
COc1ccc(Nc2oc(COc3ccc(OC)cc3)nc2C#N)cc1		inactive: -10%
COc1cc(OC)c(C2C3=C(CCCC3=O)Nc3nc4ccccc4n32)cc1OC (stereo not given)		inactive: -14.7%
Cc1nn(Cc2ccc(Cl)cc2Cl)c(C)c1NC(=O)c1ccc(COc2cc(Cl)ccc2Cl)o1	inconclusive: 22.4 µM [inhibitor, single point]	
